# Experiments:
# Rat [1] = test: concentration in blood after dosing; settings: 5 min; dosed: Benzophenone; 10 mg/kg; oral; Female; F344
# Rat [2] = test: concentration in blood after dosing; settings: 0.25 h; dosed: Benzophenone; 10 mg/kg; oral; Male; F344
# Rat [3] = test: concentration in blood after dosing; settings: 0.125 h; dosed: Benzophenone; 5 mg/kg; oral; Male; F344
# Rat [4] = test: concentration in blood after dosing; settings: 0.5 h; dosed: Benzophenone; 10 mg/kg; oral; Female; F344
# Rat [5] = test: concentration in blood after dosing; settings: 0.125 h; dosed: Benzophenone; 5 mg/kg; oral; Female; F344
# Rat [6] = test: concentration in blood after dosing; settings: 0.25 h; dosed: Benzophenone; 10 mg/kg; oral; Male; F344; remark: listed apart in the source
# Rat [7] = test: concentration in blood after dosing; settings: 0.5 h; dosed: Benzophenone; 10 mg/kg; oral; Female; F344; remark: listed apart in the source
# Rat [8] = test: concentration in plasma after dosing; settings: dosed: Benzophenone, 5 mg/kg, oral, Female, F344
# Mouse [9] = test: concentration in plasma after dosing; settings: 1.5 h; dosed: Benzophenone; 15 mg/kg; iv; Male; B6C3F1
# Rat [10] = test: concentration in plasma after dosing; settings: dosed: Benzophenone, 10 mg/kg, oral, Female, F344
# Mouse [11] = test: concentration in plasma after dosing; settings: 2.5 min; dosed: Benzophenone; 60 mg/kg; oral; Female; B6C3F1
# Mouse [12] = test: concentration in plasma after dosing; settings: 1.5 h; dosed: Benzophenone; 15 mg/kg; oral; Female; B6C3F1
# Mouse [13] = test: concentration in plasma after dosing; settings: 6 h; dosed: Benzophenone; 60 mg/kg; oral; Male; B6C3F1
# Mouse [14] = test: concentration in plasma after dosing; settings: 1 h; dosed: Benzophenone; 15 mg/kg; oral; Female; B6C3F1
# Mouse [15] = test: concentration in plasma after dosing; settings: 0.75 h; dosed: Benzophenone; 15 mg/kg; oral; Male; B6C3F1
# Mouse [16] = test: concentration in plasma after dosing; settings: 0.125 h; dosed: Benzophenone; 15 mg/kg; oral; Male; B6C3F1
# Mouse [17] = test: concentration in plasma after dosing; settings: 3 h; dosed: Benzophenone; 15 mg/kg; iv; Male; B6C3F1
# Rat [18] = test: concentration in plasma after dosing; settings: dosed: Benzophenone, 10 mg/kg, oral, Female, F344; remark: listed apart in the source
# Mouse [19] = test: concentration in plasma after dosing; settings: 5 min; dosed: Benzophenone; 30 mg/kg; oral; Female; B6C3F1
# Rat [20] = test: concentration in plasma after dosing; settings: dosed: Benzophenone, 5 mg/kg, oral, Male, F344
# Mouse [21] = test: concentration in plasma after dosing; settings: 0.5 h; dosed: Benzophenone; 60 mg/kg; oral; Female; B6C3F1
# Rat [22] = test: concentration in plasma after dosing; settings: dosed: Benzophenone, 5 mg/kg, oral, Male, F344; remark: listed apart in the source
# Rat [23] = test: concentration in plasma after dosing; settings: dosed: Benzophenone, 5 mg/kg, oral, Male, F344; remark: listed apart in the source
# Mouse [24] = test: concentration in plasma after dosing; settings: 2 h; dosed: Benzophenone; 15 mg/kg; oral; Male; B6C3F1
# Rat [25] = test: concentration in plasma after dosing; settings: dosed: Benzophenone, 10 mg/kg, oral, Male, F344
# Rat [26] = test: concentration in plasma after dosing; settings: dosed: Benzophenone, 5 mg/kg, oral, Male, F344; remark: listed apart in the source
# Mouse [27] = test: concentration in plasma after dosing; settings: 0.5 h; dosed: Benzophenone; 15 mg/kg; oral; Male; B6C3F1
# Rat [28] = test: concentration in plasma after dosing; settings: dosed: Benzophenone, 5 mg/kg, oral, Female, F344; remark: listed apart in the source
# Mouse [29] = test: concentration in plasma after dosing; settings: 0.25 h; dosed: Benzophenone; 15 mg/kg; iv; Male; B6C3F1
# Mouse [30] = test: concentration in plasma after dosing; settings: 0.75 h; dosed: Benzophenone; 15 mg/kg; iv; Male; B6C3F1
# Mouse [31] = test: concentration in plasma after dosing; settings: 0.75 h; dosed: Benzophenone; 15 mg/kg; oral; Female; B6C3F1
# Rat [32] = test: concentration in plasma after dosing; settings: dosed: Benzophenone, 10 mg/kg, oral, Female, F344; remark: listed apart in the source
# Rat [33] = test: concentration in plasma after dosing; settings: 16 h; dosed: Benzophenone; 10 mg/kg; oral; Female; F344
# Mouse [34] = test: concentration in plasma after dosing; settings: 0.5 h; dosed: Benzophenone; 15 mg/kg; iv; Female; B6C3F1
# Mouse [35] = test: concentration in plasma after dosing; settings: 3 h; dosed: Benzophenone; 60 mg/kg; oral; Female; B6C3F1
# Rat [36] = test: concentration in plasma after dosing; settings: dosed: Benzophenone, 5 mg/kg, oral, Male, F344; remark: listed apart in the source
# Rat [37] = test: concentration in plasma after dosing; settings: dosed: Benzophenone, 5 mg/kg, oral, Male, F344; remark: listed apart in the source
# Mouse [38] = test: concentration in plasma after dosing; settings: 3 h; dosed: Benzophenone; 60 mg/kg; oral; Female; B6C3F1; remark: listed apart in the source
# Mouse [39] = test: concentration in plasma after dosing; settings: 5 min; dosed: Benzophenone; 15 mg/kg; oral; Female; B6C3F1
# Mouse [40] = test: concentration in plasma after dosing; settings: 0.5 h; dosed: Benzophenone; 15 mg/kg; iv; Male; B6C3F1
# Mouse [41] = test: concentration in plasma after dosing; settings: 2 h; dosed: Benzophenone; 15 mg/kg; iv; Male; B6C3F1
compound,measurement,setting,value
O=C(c1ccccc1)c1ccccc1 [Benzophenone],concentration in blood,Rat [1],2020 ng/mL
same,concentration in blood,Rat [2],1280 ng/mL
same,concentration in blood,Rat [3],306 ng/mL
same,concentration in blood,Rat [4],983 ng/mL
same,concentration in blood,Rat [5],444 ng/mL
same,concentration in blood,Rat [6],873 ng/mL
same,concentration in blood,Rat [7],1800 ng/mL
same,concentration in plasma,Rat [8]; 0.25 h,281 ng/mL
same,concentration in plasma,Rat [8]; 24 h,16.2 ng/mL
same,concentration in plasma,Mouse [9],163 ng/mL
same,concentration in plasma,Rat [10]; 0.25 h,417 ng/mL
same,concentration in plasma,Rat [10]; 24 h,32.9 ng/mL
same,concentration in plasma,Mouse [11],1420 ng/mL
same,concentration in plasma,Mouse [12],96.1 ng/mL
same,concentration in plasma,Mouse [13],57.9 ng/mL
same,concentration in plasma,Mouse [14],187 ng/mL
same,concentration in plasma,Mouse [15],198 ng/mL
same,concentration in plasma,Mouse [16],755 ng/mL
same,concentration in plasma,Mouse [17],52.3 ng/mL
same,concentration in plasma,Rat [18]; 10 min,370 ng/mL
same,concentration in plasma,Rat [18]; 6 h,167 ng/mL
same,concentration in plasma,Mouse [19],2390 ng/mL
same,concentration in plasma,Rat [20]; 5 min,101 ng/mL
same,concentration in plasma,Rat [20]; 2 h,120 ng/mL
same,concentration in plasma,Mouse [21],1800 ng/mL
same,concentration in plasma,Rat [22]; 0.125 h,132 ng/mL
same,concentration in plasma,Rat [22]; 3 h,69.3 ng/mL
same,concentration in plasma,Rat [23]; 10 min,178 ng/mL
same,concentration in plasma,Rat [23]; 6 h,69 ng/mL
same,concentration in plasma,Mouse [24],39.9 ng/mL
same,concentration in plasma,Rat [25]; 0.25 h,474 ng/mL
same,concentration in plasma,Rat [25]; 24 h,43.5 ng/mL
same,concentration in plasma,Rat [26]; 2.5 min,10.6 ng/mL
same,concentration in plasma,Rat [26]; 1 h,87.5 ng/mL
same,concentration in plasma,Mouse [27],252 ng/mL
same,concentration in plasma,Rat [28]; 0.5 h,174 ng/mL
same,concentration in plasma,Rat [28]; 10 h,67 ng/mL
same,concentration in plasma,Mouse [29],3590 ng/mL
same,concentration in plasma,Mouse [30],528 ng/mL
same,concentration in plasma,Mouse [31],158 ng/mL
same,concentration in plasma,Rat [32]; 2.5 min,119 ng/mL
same,concentration in plasma,Rat [32]; 1 h,286 ng/mL
same,concentration in plasma,Rat [33],37.8 ng/mL
same,concentration in plasma,Mouse [34],2380 ng/mL
same,concentration in plasma,Mouse [35],247 ng/mL
same,concentration in plasma,Rat [36]; 0.125 h,127 ng/mL
same,concentration in plasma,Rat [36]; 3 h,104 ng/mL
same,concentration in plasma,Rat [37]; 5 min,89.4 ng/mL
same,concentration in plasma,Rat [37]; 2 h,117 ng/mL
same,concentration in plasma,Mouse [38],225 ng/mL
same,concentration in plasma,Mouse [39],294 ng/mL
same,concentration in plasma,Mouse [40],913 ng/mL
same,concentration in plasma,Mouse [41],61.6 ng/mL

# Source: EPA's CvTdb concentration-time database
